The results in this text go back to PubChem BioAssay AID1487 (National Center for Advancing Translational Sciences (NCATS), 2009).

This assay in a line: qHTS Assay for Modulators of Lamin A Splicing. The conditions noted are these: HeLa LMNA splicing GFP/RFP minigene ratio, 48 h. The gist of the method:
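S3 HeLa stable clones carrying a lamin A-EGFP splicing minigene plus DsRed2 were seeded at 600 cells/well in Opti-MEM with 2% FBS, pin-dosed and incubated 48 h at 37°C. Acumen cytometry (488 nm) gave the GFP/RFP total-intensity ratio.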
(In general: qHTS replaces the single test concentration by a dilution series.)

[1] abbreviates: measured here: GFP splicing reporter channel.
[2] abbreviates: measured here: RFP viability control channel.

The other results are listed elsewhere or left out. Further columns of the screen follow, without active or inactive calls. Most of these compounds were active or inconclusive in the main read-out, so they are no random draw. Words in brackets tell the shape of the fitted curve; partial curves, single points and poor fits give uncertain potencies.

A word on the AC50: it is the concentration giving half of the maximal activity seen.

With `S=c1[nH]nc(COc2ccccc2)n1Cc1ccccc1`, the AC50 is, setting by setting: under setting [1], 35.5 µM [rising, single point]; under setting [2], 35.5 µM [rising, single point].

With `COC(=O)c1ccc(CNC(=O)COC(=O)C23CC4CC(CC(C4)C2)C3)cc1`, the AC50 under setting [2] was 11.2 µM [rising, partial curve].

`Cc1nn(-c2ccccc2)c(Cl)c1/C=N/Nc1nc2ccccc2n1C`: the AC50 runs as follows: under setting [1], 31.6 µM [rising, single point]; under setting [2], 35.5 µM [rising, single point].

For `Cc1ccc(CNCC(O)(c2ccc(F)cc2)c2ccc(F)cc2)cc1`, the AC50 by setting is: under setting [1], 11.2 µM [falling, single point]; under setting [2], 11.2 µM [falling, partial curve, poor fit].

As for `O=S(=O)(c1cccc(S(=O)(=O)N2CCC(n3nnc4ccccc43)CC2)c1)N1CCCCC1`, the half-maximal activity concentration (AC50) under setting [2] was 17.8 µM [rising, partial curve].

As to `COC(=O)c1cc2sccc2n1CC(=O)N(C)c1ccccc1`, the AC50 reads like this: under setting [1], 10 µM [falling, partial curve]; under setting [2], 10 µM [falling, partial curve].

`CCOC(=O)c1[nH]c(C)c(C(=O)c2cc(F)ccc2F)c1C`: the AC50 runs as follows: under setting [1], 35.5 µM [falling, single point]; under setting [2], 0.447 µM [rising, single point].

As for `CCOC(=O)c1sc(NC(=O)c2cccnc2)c(C#N)c1C`, under setting [2], the AC50 is 10 µM [rising, partial curve].

As to `CC(C)(C)OC(=O)NCCc1nnc(SCc2ccc(Cl)cc2)o1`, under setting [2], the AC50 was 15.8 µM [rising, single point].

`CC(NS(=O)(=O)c1ccccc1)C(c1cccs1)N1CCN(c2ccccc2)CC1` (stereo not given): under setting [2], the AC50 is 22.4 µM [rising, partial curve].

As to `CCOCCN1CCN(c2c(C)c(C)nc3cc(-c4cc(OC)cc(OC)c4)nn23)CC1`, under setting [2], the AC50 was 17.8 µM [rising, single point].

As for `CC1CCc2sc(C(=O)Nc3ccc(N4CCOCC4)cc3)cc2C1` (stereo not given), the AC50 under setting [2] was 22.4 µM [rising, single point].

As for `CCCNC1=C(N(C(C)=O)c2cccc(F)c2)C(=O)c2ccccc2C1=O`, the concentration at half-maximal activity (AC50) reads like this: under setting [1], 2.82 µM [falling, full curve]; under setting [2], 15.8 µM [falling, partial curve].

`CC(C(=O)NCc1ccccc1)N1C(=O)C2CC=C(Cl)CC2C1=O` (stereo not given): the AC50 reads like this: under setting [1], 35.5 µM [rising, single point]; under setting [2], 22.4 µM [rising, single point].

Turning to `O=c1c2ccccc2cnn1Cc1n[nH]c(=S)n1-c1ccc(F)cc1`, the concentration at half-maximal activity (AC50) is, setting by setting: under setting [1], 0.00501 µM [falling, full curve, poor fit]; under setting [2], 0.00316 µM [falling, full curve, poor fit].

In the case of `Nc1ccc2oc(-c3ccccc3Cl)cc(=O)c2c1O`, the AC50 reads like this: under setting [1], 2.82 µM [falling, partial curve]; under setting [2], 17.8 µM [falling, partial curve].

In the case of `CC(C)Cc1c2c([nH]c(=S)c1C#N)CCCC2`, the half-maximal activity concentration (AC50) reads like this: under setting [1], 7.94 µM [rising, partial curve]; under setting [2], 7.08 µM [rising, full curve, poor fit].

As to `NS(=O)(=O)c1ccc(CCNc2nc(CN3CCCCC3)nc3sc4c(c23)CCC4)cc1`, the AC50 under setting [2] is 31.6 µM [rising, single point].

`CCCOc1ccc(-c2cnc(SCC(N)=O)nc2N)cc1`: the half-maximal activity concentration (AC50) under setting [1] is 22.4 µM [rising, single point] and the AC50 under setting [2] was 35.5 µM [rising, single point].

On to `Oc1ccc(Br)cc1-c1nc2cnccn2c1NC1CCCC1`, for which the AC50 under setting [2] was 35.5 µM [rising, single point].

For `CCCOc1ccc(C(=O)NCc2ccco2)cc1`, the AC50 under setting [2] is 10 µM [rising, partial curve, poor fit].

`Cc1ccc(C)c(OCCn2cc(/C=C(\C#N)C(=O)NCC3CCCO3)c3ccccc32)c1` (stereo not given): the AC50 under setting [1] is 35.5 µM [rising, single point].

As to `O=C(CC1N=C2c3ccccc3N=C(SCc3cccc(Cl)c3)N2C1=O)NCCc1ccccc1` (stereo not given), the AC50 under setting [1] was 8.91 µM [falling, partial curve] and the half-maximal activity concentration (AC50) under setting [2] is 4.47 µM [falling, partial curve].

Take `CCCS(=O)(=O)c1nnnn1-c1cccc(OC)c1`: under setting [2], the AC50 was 7.08 µM [falling, partial curve].

In the case of `O=C(O)c1ccc(Oc2c(C(F)(F)F)oc3cc(O)ccc3c2=O)cc1`, the AC50 under setting [2] was 31.6 µM [rising, single point].

As to `COc1cc2cc(C(=O)O)[nH]c2c(OC)c1OC`, the AC50 is, setting by setting: under setting [1], 0.00501 µM [falling, full curve, poor fit]; under setting [2], 0.00355 µM [falling, full curve, poor fit].

As to `COc1ccc(C)cc1-n1nnnc1SCC(=O)Nc1cccnc1Cl`, the AC50 under setting [1] was 15.8 µM [rising, single point] and the concentration at half-maximal activity (AC50) under setting [2] was 28.2 µM [rising, single point].

Consider `c1ccc2c(c1)oc1c(N3CCN(Cc4ccc5c(c4)OCO5)CC3)ncnc12`, for which, under setting [2], the AC50 is 35.5 µM [rising, single point].

With `COCC(C)n1c(C)cc(C(=O)CSc2nc3ccccc3c(=O)[nH]2)c1C` (stereo not given), the concentration at half-maximal activity (AC50) runs as follows: under setting [1], 2 µM [rising, partial curve]; under setting [2], 3.98 µM [rising, full curve].

Regarding `COc1ccc2c(c1)CC/C(=C\C=C\c1ccccc1)C2=O`, the half-maximal activity concentration (AC50) under setting [2] was 17.8 µM [rising, partial curve, poor fit].

`COC(=O)C1=C(C)N(CC2CC2)C(=O)N[C@H]1c1ccccc1`: the AC50 under setting [2] was 0.0251 µM [falling, full curve, poor fit].

Take `Cc1ccc(S(=O)(=O)n2c3ccc(Cl)cc3c3nc(C)sc32)cc1`: under setting [2], the AC50 is 35.5 µM [rising, single point].

In the case of `COc1ccc(C(=O)Cn2c(Br)nc3c2c(=O)n(C)c(=O)n3C)cc1`, the AC50 by setting is: under setting [1], 1.41 µM [rising, partial curve]; under setting [2], 22.4 µM [rising, single point].

In the case of `COc1ccc2c(c1)O[C@H](c1ccc3c(c1)OCO3)[C@@H](O)C2=O`, the AC50 under setting [2] was 2.82 µM [rising, full curve, poor fit].

As for `CCN(CC)C(=O)CSCc1cnn(-c2ccccc2)c1-n1cccc1`, the AC50 under setting [2] is 15.8 µM [rising, partial curve, poor fit].

With `CC[C@@H]1C=C(C)C[C@H](C)C[C@H](OC)[C@H]2O[C@@](O)(C(=O)C(=O)N3CCCC[C@H]3C(=O)O[C@H](/C(C)=C/[C@@H]3CC[C@@H](O)[C@H](OC)C3)[C@H](C)[C@@H](O)CC1=O)[C@H](C)C[C@@H]2OC`, under setting [2], the AC50 was 1.41 µM [rising, partial curve, poor fit].

With `O=C(Cc1noc2ccccc12)Nc1ccc(Cl)cc1`, the AC50 was 15.8 µM [rising, single point] under setting [1] and 10 µM [rising, partial curve] under setting [2].

`COc1ccc(-n2c(N)c(C(=O)NCC3CCCO3)c3nc4ccccc4nc32)c(OC)c1` (stereo not given): under setting [2], the AC50 was 3.98 µM [falling, partial curve].

`O=[N+]([O-])c1cc(C(F)(F)F)ccc1Sc1ccc2ccccc2n1`: the concentration at half-maximal activity (AC50) under setting [2] is 31.6 µM [rising, single point].

As to `O=C(CCN1CCN(Cc2ccccc2)CC1)Nc1ccc(OCc2ccccc2)cc1`, the AC50 under setting [2] was 20 µM [rising, single point].

As for `CCN(CC)S(=O)(=O)c1cccc(C(=O)N/N=C/c2ccc([N+](=O)[O-])o2)c1`, the concentration at half-maximal activity (AC50) is, setting by setting: under setting [1], 0.501 µM [falling, full curve, poor fit]; under setting [2], 3.16 µM [falling, partial curve, poor fit].

Consider `Cc1ccc(S(=O)(=O)/N=C2/C=C(Sc3ncn[nH]3)C(=O)c3ccccc32)c(C)c1`, for which the AC50 under setting [1] is 35.5 µM [falling, single point] and the half-maximal activity concentration (AC50) under setting [2] is 35.5 µM [falling, single point].

Turning to `Cc1cc(-c2c(C)[nH]n(-c3ccc(Cl)cc3)c2=O)n(-c2ccccc2)n1`, the AC50 under setting [2] is 0.141 µM [rising, full curve, poor fit].

On to `Cn1c(=O)c(CCc2ccccc2)nc2cnc(OCc3ccccc3)nc21`, for which the AC50 is, setting by setting: under setting [1], 2.51 µM [falling, partial curve, poor fit]; under setting [2], 7.08 µM [falling, partial curve, poor fit].

Turning to `COc1cc(-c2nc(CN(C)Cc3nnc(C)o3)c(C)o2)ccc1F`, under setting [1], the AC50 was 4.47 µM [falling, full curve, poor fit].

On to `CN1CCN(c2nc(-c3ccncc3)nc3ccccc23)CC1`, for which the AC50 under setting [2] is 17.8 µM [rising, single point].

Regarding `Cc1onc(-c2ccccc2)c1C(=O)N1CCCSC1=Nc1ccccc1`, under setting [2], the AC50 is 15.8 µM [rising, single point].

On to `CCOc1ccccc1Nc1nnc(SC(C)C(=O)Nc2nc(-c3ccccc3)cs2)s1` (stereo not given), for which, under setting [2], the AC50 is 11.2 µM [rising, partial curve].

As to `Cc1ccc(NC(=O)C(=O)c2c(-c3ccccc3)cc3ccccn23)cc1S(=O)(=O)N1CCOCC1`, the concentration at half-maximal activity (AC50) under setting [2] is 11.2 µM [rising, single point].

As for `O=C(CN(CC1CCCO1)S(=O)(=O)c1ccc(S(=O)(=O)NCC2CCCO2)cc1)Nc1ccccc1` (stereo not given), under setting [1], the concentration at half-maximal activity (AC50) is 11.2 µM [rising, single point].

Turning to `Cc1cccc(OCC(=O)N/N=C\C=C\c2ccc3c(c2)OCO3)c1C`, the AC50 under setting [2] is 20 µM [falling, partial curve, poor fit].

Consider `CC(=NCc1ccc2c(c1)OCO2)C1=C(O)c2ccccc2C1=O`, for which the half-maximal activity concentration (AC50) under setting [2] was 35.5 µM [rising, single point].

As to `O=C(COc1ccc(Br)cc1Cl)NC(=S)N1CCc2ccccc21`, under setting [2], the AC50 was 35.5 µM [rising, single point].

On to `Brc1ccc(/C=N/Nc2ccccc2)cc1`, for which the AC50 is 15.8 µM [rising, partial curve, poor fit] under setting [1] and 15.8 µM [rising, partial curve, poor fit] under setting [2].
